For 23 compounds, T/C and survivor count results are on record in PubChem BioAssay AID330 (DTP/NCI, 2004).

The assay has as its system P388 leukemia ip, CD2F1 mice, survival T/C. As to the kind of experiment: NCI In Vivo Anticancer Drug Screen. Data for tumor model P388 Leukemia (intraperitoneal) in CD2F1 (CDF1) mice. The note with it: T/C endpoint: median survival time, higher T/C = longer survival.
The mark [1] stands for this setting: dose: 200.0 mg/kg/injection, schedule: Q01DX005 (ip), vehicle: Klucel (hydroxypropylcellulose) (HPC).
Setting [2] is: dose: 200.0 mg/kg/injection, schedule: Q01DX005 (ip), vehicle: saline with Tween-80.
The mark [3] stands for this setting: dose: 240.0 mg/kg/injection, schedule: Q01DX005 (ip), vehicle: Klucel (hydroxypropylcellulose) (HPC).
Setting [4] is: dose: 25.0 mg/kg/injection, schedule: Q01DX005 (ip), vehicle: saline with Tween-80.
Setting [5] is: dose: 50.0 mg/kg/injection, schedule: Q01DX005 (ip), vehicle: saline with Tween-80.
Where [6] appears, read: dose: 100.0 mg/kg/injection, schedule: Q01DX005 (ip), vehicle: saline with Tween-80.
The mark [7] stands for this setting: dose: 400.0 mg/kg/injection, schedule: Q04DX002 (ip), vehicle: water.
The mark [8] stands for this setting: dose: 12.5 mg/kg/injection, schedule: Q01DX009 (ip), vehicle: saline.
Setting [9] is: dose: 25.0 mg/kg/injection, schedule: Q01DX009 (ip), vehicle: saline.

Structures are written as SMILES. The list does not hold the whole screen: it gathers tests that were run many times, whatever their T/C, doses with no T/C, and many T/C values between a quarter and a half above the control. Further doses and runs are listed elsewhere. T/C gives the treated animals as a percentage of the vehicle group. Some doses have a count of surviving animals in place of a T/C: the source holds a T/C of zero for them, seemingly a mark for toxic or unscored doses. Some survivor counts are full or nearly so, which does not show that the dose was tolerated: survival well below the control is almost never listed, so the zero probably covers shortened survival too. Survivors were counted at the toxicity check, usually on the fifth day, unless a day is given; later deaths do not show. Schedule codes are those of the source, read here as Q, the interval in days (D) or hours (H), X, the number of doses. Some entries were tested several times; the values are given in rising order. For survival time, the PubChem record calls one and a half times the control and up active, and a quarter to a half above the control has no call in these data; cut-offs in other NCI protocols can differ. Counts like (3×) say how often a value occurs here.

As for `CC1(C)CC(OP(=S)(OC2CC(C)(C)N(O)C(C)(C)C2)N2CC2)CC(C)(C)N1O`, for the setting “dose: 100.0 mg/kg/injection, schedule: Q01DX009 (ip), vehicle: saline + alcohol”, the T/C is 147 % of control.
In the case of `O=C1c2ccccc2CCC1[n+]1ccc2ccccc2c1` (stereo unspecified), the survivor count runs as follows: (dose: 100.0 mg/kg/injection, schedule: Q01DX005 (ip), vehicle: Klucel (hydroxypropylcellulose) (HPC)) 2 of 5; under setting [1], 0 of 5.
With `ClCC1=NC2CCCCC2N1` (stereo unspecified), under setting [2], the survivor count is recorded as 3 of 5.
As for `C=C(C)[C@@H]1CCc2c(O)c(O)c(=O)cc(C)c2C1`, under “dose: 14.0 mg/kg/injection, schedule: Q01DX009 (ip), vehicle: saline”, the T/C was 127 % of control.
In the case of `CCN(CC)CCCC(C)Nc1c(C)cnc2cc(Cl)c(C)cc12` (stereo unspecified), under “dose: 200.0 mg/kg/injection, schedule: Q01DX005 (ip), vehicle: saline”, the survivor count is on record as 1 of 5.
On to `Cc1cccc(Nc2c(C(=O)O)cnc3cc4c(cc23)OCO4)c1`, for which the survivor count under setting [3] is recorded as 6 of 6.
As for `O=c1oc(-c2cccc(C[n+]3ccccc3)c2)nc2cc(Cl)ccc12`, the survivor count (dose: 120.0 mg/kg/injection, schedule: Q01DX005 (ip), vehicle: saline) is reported as 4 of 5 and the survivor count (dose: 240.0 mg/kg/injection, schedule: Q01DX005 (ip), vehicle: saline) is 2 of 6.
As to `Nc1n[n+](-c2ccc3ccccc3c2)no1`, the survivor count is, setting by setting: (dose: 50.0 mg/kg/injection, schedule: Q01DX009 (ip), vehicle: water) 6 of 6; (dose: 100.0 mg/kg/injection, schedule: Q01DX009 (ip), vehicle: water) 0 of 6.
For the compound `Cn1c(O)c(N=NC(=S)NC(=O)C23CC4CC(CC(C4)C2)C3)c2ccccc21`, the survivor count is, setting by setting: (dose: 12.5 mg/kg/injection, schedule: Q01DX005 (ip), vehicle: saline with Tween-80) 6 of 6; under setting [4], 6 of 6; under setting [5], 6 of 6; under setting [6], 6 of 6.
As for `O=c1[nH]c(=O)n(C2CC(O)C(CO)O2)cc1F` (stereo unspecified), the T/C is 136 % of control (dose: 5.0 mg/kg/injection, schedule: Q01DX010 (ip), vehicle: saline); 112, 113, 115, 117, 121, 122, 136 % of control (dose: 25.0 mg/kg/injection, schedule: Q04DX002 (ip), vehicle: water); 135 % of control (dose: 38.9 mg/kg/injection, schedule: Q04DX003 (ip), vehicle: saline); 117, 118, 119, 120, 124, 135, 142 % of control (dose: 50.0 mg/kg/injection, schedule: Q04DX002 (ip), vehicle: water); 125 % of control (dose: 51.8 mg/kg/injection, schedule: Q04DX002 (ip), vehicle: saline); 136 % of control (dose: 64.8 mg/kg/injection, schedule: Q04DX003 (ip), vehicle: saline). Moreover, the T/C was 128 % of control (dose: 86.4 mg/kg/injection, schedule: Q04DX002 (ip), vehicle: saline); 115, 122, 125, 131, 133, 144 % of control (2×) (dose: 100.0 mg/kg/injection, schedule: Q04DX002 (ip), vehicle: water); 138 % of control (dose: 108.0 mg/kg/injection, schedule: Q04DX003 (ip), vehicle: saline); 139 % of control (dose: 110.0 mg/kg/injection, schedule: Q01DX009 (ip), vehicle: saline); 134 % of control (dose: 144.0 mg/kg/injection, schedule: Q04DX002 (ip), vehicle: saline); 148 % of control (dose: 180.0 mg/kg/injection, schedule: Q04DX003 (ip), vehicle: saline). The T/C (dose: 200.0 mg/kg/injection, schedule: Q04DX002 (ip), vehicle: water) was 130, 134, 140, 158 (2×), 160, 165 % of control; the T/C (dose: 400.0 mg/kg/injection, schedule: Q01DX001 (ip), vehicle: saline) is 127 % of control; the T/C under setting [7] was 101, 136, 159, 163 % of control. Further, under setting [7], the survivor count is 5 of 5 and 6 of 6.
Consider `O=C1C=CC(Nc2cc(Cl)ccc2Cl)C1Nc1cc(Cl)ccc1Cl` (stereo unspecified), for which the survivor count (dose: 15.0 mg/kg/injection, schedule: Q01DX005 (ip), vehicle: saline with Tween-80) is listed as 6 of 6; the survivor count (dose: 30.0 mg/kg/injection, schedule: Q01DX005 (ip), vehicle: saline with Tween-80) is 6 of 6; the survivor count (dose: 60.0 mg/kg/injection, schedule: Q01DX005 (ip), vehicle: saline with Tween-80) is 6 of 6; the survivor count (dose: 120.0 mg/kg/injection, schedule: Q01DX005 (ip), vehicle: saline with Tween-80) was 6 of 6; the survivor count (dose: 240.0 mg/kg/injection, schedule: Q01DX005 (ip), vehicle: saline with Tween-80) was 6 of 6.
Turning to `CC(=O)OCN1C(=O)C2C3C=CC(C2C1=O)C1C2C(=O)N(COC(C)=O)C(=O)C2C31` (stereo unspecified), the T/C is, setting by setting: (dose: 50.0 mg/kg/injection, schedule: Q01DX009 (ip), vehicle: saline with Tween-80) 140 % of control; (dose: 200.0 mg/kg/injection, schedule: Q01DX009 (ip), vehicle: saline with Tween-80) 133 % of control.
Take `Fc1ccc(Nc2c3ccccc3nc3c2cnn3-c2ccccc2)cc1`: the survivor count (dose: 120.0 mg/kg/injection, schedule: Q01DX005 (ip), vehicle: Klucel (hydroxypropylcellulose) (HPC)) is recorded as 6 of 6.
Regarding `CC(=O)Nc1ccc(N=NN(C)Cc2ccccc2)cc1`, the T/C (dose: 25.0 mg/kg/injection, schedule: Q01DX001 (ip), vehicle: Klucel (hydroxypropylcellulose) (HPC)) was 127 % of control. For the same compound, the survivor count was 2 of 6 (dose: 50.0 mg/kg/injection, schedule: Q01DX001 (ip), vehicle: Klucel (hydroxypropylcellulose) (HPC)); 2 of 6 and 3 of 6 (dose: 100.0 mg/kg/injection, schedule: Q01DX001 (ip), vehicle: Klucel (hydroxypropylcellulose) (HPC)).
For the compound `COC1=C(OC)C(=O)C(Sc2ccccc2)=C(CO)C1=O`, the survivor count (dose: 6.25 mg/kg/injection, schedule: Q01DX005 (ip), vehicle: saline with Tween-80) was 6 of 6; the survivor count under setting [4] is 1 of 6; the survivor count under setting [5] is reported as 0 of 6; the survivor count under setting [6] is given as 0 of 6; the survivor count under setting [2] is recorded as 0 of 6.
Consider `C[NH-].C[NH-].[Cl][Pt+2][Cl]`, for which the T/C (dose: 6.25 mg/kg/injection, schedule: Q01DX009 (ip), vehicle: saline) is 141 % of control. The survivor count was 5 of 6 and 6 of 6 under setting [8]; 2 of 6 and 6 of 6 under setting [9]; 0 of 6 and 1 of 6 (dose: 50.0 mg/kg/injection, schedule: Q01DX009 (ip), vehicle: saline).
As for `O=[N+]([O-])c1ccc2c3c(ccc([N+](=O)[O-])c13)CC2`, the survivor count by setting is: (dose: 100.0 mg/kg/injection, schedule: Q01DX009 (ip), vehicle: Klucel (hydroxypropylcellulose) (HPC)) 6 of 6; (dose: 200.0 mg/kg/injection, schedule: Q01DX009 (ip), vehicle: Klucel (hydroxypropylcellulose) (HPC)) 6 of 6; (dose: 400.0 mg/kg/injection, schedule: Q01DX009 (ip), vehicle: Klucel (hydroxypropylcellulose) (HPC)) 6 of 6.
Consider `O=C1C(Cl)=C(N2CCOCC2)C(=O)C(Cl)=C1N1CCOCC1`, for which the survivor count (dose: 200.0 mg/kg/injection, schedule: Q01DX005 (ip), vehicle: suspension in saline) is listed as 0 of 6.
With `O=C(C[n+]1cc2ccccc2c2ccccc21)c1ccc(-c2ccccc2)cc1`, under setting [1], the survivor count is 0 of 5.
Same read-out and setting: under `NC(=S)N/N=C\Cn1cc([N+](=O)[O-])c(=O)[nH]c1=O` stands 6 of 6.
Regarding `Clc1nc(Cl)nc(Nc2ncccn2)n1`, the survivor count under setting [3] is reported as 2 of 6.
With `CCC[CH2][Sn]([CH2]CCC)([O]C(C)=O)[c]1ccccc1`, the survivor count under setting [8] was 3 of 6 and the survivor count under setting [9] is on record as 3 of 6.
Take `O=C1/C(=C/c2ccncc2)CCCc2ccccc21`: the survivor count under setting [3] is 0 of 6.
